Part of at least one peptide drawing is inferred or uncertain, most often the ends. Positions of bridges follow the written chain, without caps; N, C: chain ends. Residues, ends and D or L forms follow the SMILES beside them.
Legend:
wound = assay: Wound healing activity compared with polysporin (similar experiment); assay type: in vivo; conditions: FIG. 4
skin defects (wounds) = assay: Skin wound healing in Balb/c mice, 6 mm biopsy punch defects, visual histology scoring; assay type: in vivo

N=C(N)NCCC[C@H](NC(=O)[C@H](Cc1c[nH]cn1)NC(=O)[C@@H]1CSSC[C@H](NC(=O)[C@H](Cc2c[nH]cn2)NC(=O)[C@H](Cc2c[nH]cn2)NC(=O)[C@@H](N)CCCNC(=N)N)C(=O)N[C@@H](Cc2ccc(O)cc2)C(=O)N[C@@H](CCCCN)C(=O)N[C@@H](CCCNC(=N)N)C(=O)N[C@@H](CCCCN)C(=O)N[C@@H](Cc2ccccc2)C(=O)N[C@@H](Cc2c[nH]cn2)C(=O)N[C@@H](CCC(=O)O)C(=O)N[C@@H](CCCCN)C(=O)N[C@@H](Cc2c[nH]cn2)C(=O)N[C@@H](Cc2c[nH]cn2)C(=O)N1)C(=O)NCC(=O)N[C@@H](Cc1ccc(O)cc1)C(=O)O [DB2121, N-RHHCYKRKFHEKHHCHRGY-C] (H-RHHCYKRKFHEKHHCHRGY-OH; disulfide 4-15; N-terminus and C-terminus assumed)
wound healing activity compared with polysporin (wound): comparable to that of polysporin
cumulative score (sum of lesion size, granulation tissue, inflammation, mineralization, scab formation, depth of lesion; each 0-3) (skin defects (wounds); 1 mg/kg DB2121 in PBS into wound, day 7, saline control 24.9+/−1.28, low score = healed): 9.2+/−2.56
histology of the skin defect after 7 days (skin defects (wounds); day 7, H&E sections, compared with control wounds): improved healing
wound healing process vs control (skin defects (wounds); each tested concentration (10, 1, 0.1 mg/kg), day 7, **P<0.01, ***P<0.001): significantly improved the wound healing process

From US20140065119A1, “METHODS AND COMPOSITIONS COMPRISING CYCLIC ANALOGUES OF HISTATIN 5 FOR TREATING WOUNDS” (THE UNIVERSITY OF WESTERN ONTARIO, priority 2010, published 2014)
